# Where two headings read alike, the source gives them in different places.
# Legend:
# [1] = for mean AUClast compared to normal hepatic function / mean AUC∞ compared to normal hepatic function / mean Cmax compared to normal hepatic function / mean AUClast,unbound compared to normal hepatic function / mean AUC∞,unbound compared to normal hepatic function / mean Cmax,unbound compared to normal hepatic function: arithmetic means; for mean AUClast compared to normal hepatic function / mean AUC∞ compared to normal hepatic function / mean Cmax compared to normal hepatic function / AUClast compared to normal hepatic function, based on GMR / AUC∞ compared to normal hepatic function, based on GMR / Cmax compared to normal hepatic function, based on GMR: total
# clinical [2] = conditions: both, human, in vivo; for AUC(0-inf): geometric mean; for Vd/F: po
# clinical [3] = conditions: both, human, plasma, % fu, fraction unbound (mean (SD)), Day 1, 2 h
# Experimental: (§1) Participants entered the study site on the morning of Day 1 and remained there until after collection of the 96 hours PK sample on Day 5. […] In addition, blood samples for determination of the plasma protein binding (PPB) were collected.
# (§2) For all cohorts, 2-hours fraction unbound values were used to derive the unbound plasma concentrations and these unbound concentrations were used to derive unbound PK parameters.
# plasma protein = experiment: clinical; conditions: Day 1, 2 h
# Experimental: as §1, §2
# [4] = dose normalized moderate hepatic impairment vs normal
# [5] = mild hepatic impairment vs normal
# [6] = subjects having mild hepatic impairment
structure (smiles),measurement,setting,value
"Cc1cc(C)nc(N2CC3CN(C(=O)c4c(F)cccc4-n4nccn4)CC3C2)n1 (stereo not drawn) [seltorexant, [5-(4,6-dimethyl-pyrimidin-2-yl)-hexahydro-pyrrolo[3,4-c]pyrrol-2-yl]-(2-fluoro-6-[1,2,3]triazol-2-yl-phenyl)-methanone]",mean AUClast compared to normal hepatic function,[1]; [4],comparable
same,mean AUC∞ compared to normal hepatic function,[1]; [4],comparable
same,mean Cmax compared to normal hepatic function,[1]; [4],comparable
same,"mean AUClast,unbound compared to normal hepatic function",[1]; [4],2.77 fold
same,"mean AUC∞,unbound compared to normal hepatic function",[1]; [4],2.79 fold
same,"mean Cmax,unbound compared to normal hepatic function",[1]; [4],2.81 fold
same,"AUClast compared to normal hepatic function, based on GMR",[1]; [4],~1.15 fold
same,"AUC∞ compared to normal hepatic function, based on GMR",[1]; [4],~1.16 fold
same,"Cmax compared to normal hepatic function, based on GMR",[1]; [4],~1.07 fold
same,"AUClast,unbound compared to normal hepatic function, based on GMR",[1]; [4],~2.65 fold
same,"AUC∞,unbound compared to normal hepatic function, based on GMR",[1]; [4],~2.67 fold
same,"Cmax,unbound compared to normal hepatic function, based on GMR",[1]; [4],~2.48 fold
same,mean AUClast compared to normal hepatic function,[1]; [5],1.37 fold
same,mean AUC∞ compared to normal hepatic function,[1]; [5],1.38 fold
same,mean Cmax compared to normal hepatic function,[1]; [5],comparable
same,"mean AUClast,unbound compared to normal hepatic function",[1]; [5],1.77 fold
same,"mean AUC∞,unbound compared to normal hepatic function",[1]; [5],1.77 fold
same,"mean Cmax,unbound compared to normal hepatic function",[1]; [5],1.45 fold
same,"AUClast compared to normal hepatic function, based on GMR",[1]; [5],~1.40 fold
same,"AUC∞ compared to normal hepatic function, based on GMR",[1]; [5],~1.40 fold
same,"Cmax compared to normal hepatic function, based on GMR",[1]; [5],~1.07 fold
same,"AUClast,unbound compared to normal hepatic function, based on GMR",[1]; [5],~1.68 fold
same,"AUC∞,unbound compared to normal hepatic function, based on GMR",[1]; [5],~1.69 fold
same,"Cmax,unbound compared to normal hepatic function, based on GMR",[1]; [5],~1.28 fold
same,total AUC increase compared to normal hepatic function,[1]; [6],1.40 fold
same,unbound AUC increase compared to normal hepatic function,[1]; [6],1.68 fold
same,AUC(0-inf),"clinical [2]; 10 mg, Cohort 3 (Test) moderate hepatic impairment, 10 mg dose normalized to 20 mg, unbound",88.5 ng·h/mL
same,AUC(0-inf),"clinical [2]; 20 mg, Cohort 1 (Reference) normal hepatic function, total",2380 ng·h/mL
same,AUC(0-inf),"clinical [2]; 20 mg, Cohort 1 (Reference) normal hepatic function, unbound",33.2 ng·h/mL
same,AUC(0-inf),"clinical [2]; 20 mg, Cohort 2 (Test) mild hepatic impairment, total",3340 ng·h/mL
same,AUC(0-inf),"clinical [2]; 20 mg, Cohort 2 (Test) mild hepatic impairment, unbound",56 ng·h/mL
same,Vd/F,clinical [2]; 10 mg,43.1 L
same,Vd/F,clinical [2]; 20 mg,35.5 L
same,fraction unbound at 2 h,"clinical [3]; 10 mg, Cohort 3 moderate hepatic impairment",0.0339
same,fraction unbound at 2 h,"clinical [3]; 20 mg, Cohort 1 normal hepatic function",0.015
same,fraction unbound at 2 h,"clinical [3]; 20 mg, Cohort 2 mild hepatic impairment",0.0202
same,% fb (mean (SD)),plasma protein; Cohort 1 normal hepatic function,98.5 (0.564) %
same,% fb (mean (SD)),plasma protein; Cohort 2 mild hepatic impairment,98.0 (1.37) %
same,% fb (mean (SD)),plasma protein; Cohort 3 moderate hepatic impairment,96.6 (1.22) %

# Reference: patent publication US20250082635A1 (Janssen Pharmaceutica NV, priority 2023, published 2025)
